Experimental data published in PubChem BioAssay AID493014 (National Center for Advancing Translational Sciences (NCATS), 2011).
Where “and” joins values, the source holds several entries; their conditions need not be identical. Identical values can stand only once. The list shows a part of the results. These are further read-outs of the screen, such as a control signal, another cell line or another target. No call is given for them. The list favours compounds with an active or inconclusive main result. Potencies come from curve fits of mixed quality, noted in brackets.

Assay: qHTS Assay to Find Inhibitors of Chronic Active B-Cell Receptor Signaling
Details: ABC-DLBCL IkBa-CBG/CBR reporter, luminescence ratio (green luciferase fused to IkBa over red control in TMD8 lymphoma cells), 4 h
Summary of the method: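 TMD8 human ABC-DLBCL cells with doxycycline-inducible IκBα–green luciferase fusion and unfused red luciferase, in 0.5% FBS medium; compounds up to 46 uM, 4 h at 37C. Green/red luminescence ratio, filter-overlap corrected, fitted to concentration-response curves.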

[1] = measured here: CBR red luminescence, cell number
[2] = measured here: IkBa-CBG green luminescence

SMILES	AC50 [1]	AC50 [2]
Cc1ccc(C(=O)NC(=S)Nc2ccccc2C(F)(F)F)c(C)c1	0.231 µM [rising, full curve, poor fit]	
CN(C)c1nc(OCCOC(=O)Nc2ccc(Cl)cc2Cl)nc(N(C)C)n1	0.00411 µM [rising, full curve, poor fit]	
Cc1cc(-c2nnc(SCC(=O)Nc3nc(-c4ccc(Cl)cc4)cs3)o2)no1	8.91 µM [rising, partial curve, poor fit]	
Nc1ccc(C(=O)N/N=C/c2c[nH]c3ccccc23)cc1	11.2 µM [falling, partial curve, poor fit]	
COc1ccccc1NC(=S)NNC(=O)c1nn(C)cc1Cl	12.6 µM [falling, partial curve]	
COc1ccc(C(Nc2ccccn2)c2c(NC(=O)c3ccco3)sc(C)c2C)cc1OC (stereo not drawn)	32.6 µM [falling, single point]	
O=C(CSc1nnc(-c2ccccc2)c2ccccc12)NCC1CCCO1 (stereo not drawn)	35.5 µM [falling, single point]	
Cc1c(-c2ccccc2)[nH]n2c(=O)c3c(nc12)CCCC3	25.9 µM [rising, partial curve]	
COCCNC(=O)/C(C#N)=C\c1ccc(CNC(=O)C(=O)Nc2ccc(C)c(C)c2)o1	7.08 µM [rising, partial curve, poor fit]	
COc1ccc(C2SCCN2C(=O)c2ccc([N+](=O)[O-])cc2)cc1 (stereo not drawn)	6.31 µM [rising, single point]	
Cc1cc(C)c(S(=O)(=O)N2CCCCCC2)cc1Br	5.01 µM [rising, partial curve, poor fit]	
CC(=O)N1CCC(=NNc2nc3ccccc3s2)CC1	17.8 µM [falling, single point]	
CCOC(=O)c1c(CC(C)C)csc1/N=C/C1=C(O)CCCC1=O	14.1 µM [falling, single point]	15.8 µM [rising, single point]
COc1ccc(C(Nc2ccccn2)c2c(NC(=O)c3ccco3)sc(C)c2C)cc1 (stereo not drawn)	0.103 µM [rising, full curve, poor fit]	
Cc1ccccc1CNC(=O)Nc1ccc(Cl)cc1	25.1 µM [falling, partial curve, poor fit]	
Cn1c(-c2ccc3nc(N)sc3c2)nc2cc(N)ccc21	10.3 µM [falling, partial curve, poor fit]	

SMILES	AC50 [1]	AC50 [2]
CCCN(CCC)C(=O)c1oc2ccccc2c1NC(=O)Cc1cccc(OC)c1	3.98 µM [rising, full curve, poor fit]	
C=CCNC(=S)NNC(=O)c1ccc2c(c1)OCO2	20 µM [falling, single point]	
COc1cccc(-c2nc(N3CCN(C)CC3)c3ccccc3n2)c1O		14.1 µM [rising, partial curve, poor fit]
COc1ccc(OC(=O)CCc2c[nH]c3ccccc23)cc1	0.224 µM [rising, full curve, poor fit]	
Cc1ccc2nc(-c3ccc(NC(=O)C4CCCO4)cc3)[nH]c2c1 (stereo not drawn)	2.59 µM [falling, full curve]	
CCOc1cc(C2C(C#N)=C(N)Oc3n[nH]c(CC)c32)ccc1OCCN1CCOCC1 (stereo not drawn)	18.4 µM [falling, partial curve, poor fit]	
Cc1cccc(C)c1NC(=O)N1C(C(=O)O)CSC1C(=O)O (stereo not drawn)	29.1 µM [falling, single point]	
O=C(O)c1ccc(N=NN2CCOCC2)cc1	9.2 µM [falling, partial curve]	
O=C(COC(=O)c1ccc(NS(=O)(=O)c2cccs2)cc1O)Nc1ccc(F)cc1	22.4 µM [falling, single point]	
COc1cccc(-n2c(SCC(=O)NCCC3=CCCCC3)nc3n[nH]c(C)c3c2=N)c1	14.1 µM [falling, partial curve, poor fit]	
O=C(C[n+]1ccc(C(=O)NCc2ccccc2)cc1)c1ccc2c(c1)OCCO2	17.8 µM [falling, partial curve, poor fit]	
Nc1[nH]n(-c2ccccc2)c(=O)c1N=Nc1ccccc1[N+](=O)[O-]	0.231 µM [falling, full curve]	
Cn1nccc1C(=O)Nc1ccccc1C(=O)O	10 µM [falling, partial curve, poor fit]	
Cc1ccnc2nc(C(=O)N3CCN(S(=O)(=O)c4ccccc4)CC3)nn12	35.5 µM [rising, single point]	
O=C(NNC1=Nc2ccccc2SC1)c1ccccc1F	14.1 µM [falling, partial curve]	
CCN(CC)Cc1cc(Nc2ccnc3cc(Cl)ccc23)ccc1O	8.91 µM [falling, partial curve, poor fit] and 20.6 µM [falling, partial curve, poor fit]	
